Structures were worked out from names or drawings and are uncertain.

Sequences of proteins named here, by UniProt entry; tags and fusion partners are left off. Residues count along the entry.
UniProt P49862, 30-253 limits assumed: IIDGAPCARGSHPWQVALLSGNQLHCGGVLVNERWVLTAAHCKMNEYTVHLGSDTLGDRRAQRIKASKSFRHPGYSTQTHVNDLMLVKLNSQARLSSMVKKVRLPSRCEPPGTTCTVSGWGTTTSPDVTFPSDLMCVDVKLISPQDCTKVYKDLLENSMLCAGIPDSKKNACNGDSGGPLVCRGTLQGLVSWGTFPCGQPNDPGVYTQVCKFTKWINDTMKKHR

The target in this experiment is Active human KLK7 (SCCE) (Homo sapiens (Human), UniProt P49862). Briefly: KLK7 Inhibitor Test. The format is biochemical. The note with it: substrate MeO-Suc-Arg-Pro-Tyr-pNA, pH 7.2, 37° C., absorbance at 405 nm. As for the experimental part:
KLK7 Inhibitor Test Substrate:(MeO-Suc-[…]), acetate salt, Peptide international, lot #906841, previously named S-2586 Enzyme: […] Buffer: 10 mM NaPhospate, 0.5 M NaCl, pH 7.2 […] 10 μl of substance in DMSO was added to wells giving final concentrations of 20 μ[…], and 0.15625 μM. 40 μl of active KLK7 (SCCE) (diluted to 12.5 μg/ml in activity buffer) was added all wells except blank to which activity buffer was added. […] The mean value V of each sample was calculated (n=2 for the substances and n=4 for the control). From the values of V the % of total activity was calculated as (Vinhibitor/Vcontrol (no inhibitor))×100. Plotting and calculation was then done in originPro. % of total activity (y) was plotted vs. log [inhibitor] (log x) and a function of dose response y=A1+(A2-A1)/(1+10^((LOG(x0)-x)*p)) where A1=Bottom platue, A2=Top platue, x0=EC50 and p=Hill slope was fitted to the curve. […] The IC50 values were used to identify KLK7 inhibitors according to the invention.

`COc1ccc(NC(=O)C(C)OC(=O)CCC2CCCC2)cc1` (stereo not shown) came in with an IC50 of 150 nM.
